Experimental data as given in patent US20060252053A1 (Dana-Farber, published 2006).
Results are given in words; binding and its absence hold for the method and conditions named. For part of these data: In cells and extracts the contact can be indirect. Some binding calls cover weakened binding; strength is not graded here. For part of these data: Sequences can lack the tags named with a protein.

Protein sequences, listed by entry. Tags and fused reporters are not part of them.
UniProt O14727: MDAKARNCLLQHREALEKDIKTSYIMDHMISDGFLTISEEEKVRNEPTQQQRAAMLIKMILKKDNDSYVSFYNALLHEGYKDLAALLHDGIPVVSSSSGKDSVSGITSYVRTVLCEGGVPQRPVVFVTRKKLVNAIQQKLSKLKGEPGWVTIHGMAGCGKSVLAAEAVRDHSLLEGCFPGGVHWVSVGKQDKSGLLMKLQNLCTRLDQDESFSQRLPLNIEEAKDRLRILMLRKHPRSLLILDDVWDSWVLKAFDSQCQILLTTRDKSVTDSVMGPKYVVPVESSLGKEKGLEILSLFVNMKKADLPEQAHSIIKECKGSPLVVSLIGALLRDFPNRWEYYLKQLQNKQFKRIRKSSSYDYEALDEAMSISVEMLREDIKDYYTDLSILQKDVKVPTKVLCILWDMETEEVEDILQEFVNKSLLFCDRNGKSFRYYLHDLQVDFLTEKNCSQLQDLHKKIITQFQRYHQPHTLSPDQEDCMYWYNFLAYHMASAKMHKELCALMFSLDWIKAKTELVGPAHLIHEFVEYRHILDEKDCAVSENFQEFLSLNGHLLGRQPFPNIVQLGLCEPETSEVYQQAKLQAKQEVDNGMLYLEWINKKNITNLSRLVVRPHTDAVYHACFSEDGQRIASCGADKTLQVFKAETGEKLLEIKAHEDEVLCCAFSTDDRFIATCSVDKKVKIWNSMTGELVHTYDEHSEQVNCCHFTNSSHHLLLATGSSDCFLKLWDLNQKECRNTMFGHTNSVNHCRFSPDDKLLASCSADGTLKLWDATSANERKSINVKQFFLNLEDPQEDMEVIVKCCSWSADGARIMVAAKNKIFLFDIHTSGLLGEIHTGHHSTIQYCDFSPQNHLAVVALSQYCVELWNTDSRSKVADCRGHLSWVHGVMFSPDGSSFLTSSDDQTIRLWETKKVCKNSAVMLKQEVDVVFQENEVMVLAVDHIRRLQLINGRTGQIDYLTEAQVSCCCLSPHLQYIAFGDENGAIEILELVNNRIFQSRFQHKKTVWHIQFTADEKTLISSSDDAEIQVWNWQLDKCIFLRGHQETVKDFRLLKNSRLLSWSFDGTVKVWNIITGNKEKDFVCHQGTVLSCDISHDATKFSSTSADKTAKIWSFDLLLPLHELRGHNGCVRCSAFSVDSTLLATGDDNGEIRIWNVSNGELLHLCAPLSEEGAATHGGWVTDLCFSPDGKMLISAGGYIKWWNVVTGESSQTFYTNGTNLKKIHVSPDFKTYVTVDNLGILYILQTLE
UniProt P02340: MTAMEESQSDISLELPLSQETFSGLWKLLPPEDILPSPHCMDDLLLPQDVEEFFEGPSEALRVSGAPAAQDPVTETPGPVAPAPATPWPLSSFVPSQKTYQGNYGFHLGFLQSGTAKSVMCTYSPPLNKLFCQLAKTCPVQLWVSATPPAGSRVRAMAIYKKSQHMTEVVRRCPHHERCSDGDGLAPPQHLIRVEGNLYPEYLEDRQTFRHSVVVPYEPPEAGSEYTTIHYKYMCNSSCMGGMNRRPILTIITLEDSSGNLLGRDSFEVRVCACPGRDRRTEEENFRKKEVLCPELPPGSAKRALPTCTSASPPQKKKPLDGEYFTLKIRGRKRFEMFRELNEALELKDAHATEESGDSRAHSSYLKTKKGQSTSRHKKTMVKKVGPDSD

Tests used:
[1] = target: T1, endogenous procaspase-7 (LNZ308, U87MG and 293T cells) (human) (UniProt P55210); assay: anti-L12-2 co-immunoprecipitation from LNZ308, U87MG and 293T lysates, caspase-7 western blot
T1 sequence (looked up): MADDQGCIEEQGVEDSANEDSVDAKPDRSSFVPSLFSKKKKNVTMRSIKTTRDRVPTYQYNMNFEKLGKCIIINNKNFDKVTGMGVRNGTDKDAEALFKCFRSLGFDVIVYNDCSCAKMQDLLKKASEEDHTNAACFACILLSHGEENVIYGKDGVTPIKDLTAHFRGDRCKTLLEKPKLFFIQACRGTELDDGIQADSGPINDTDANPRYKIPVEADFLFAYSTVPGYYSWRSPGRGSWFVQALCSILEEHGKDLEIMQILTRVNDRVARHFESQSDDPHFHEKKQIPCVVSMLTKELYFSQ

[2] = target: endogenous Apaf-1 polypeptide of 293T cells (human) (UniProt O14727); assay: anti-V5 co-immunoprecipitation from 293T cells, Apaf-1 western blot
[3] = target: p53 polypeptide immunoprecipitated from Ink4a/Arf deficient astrocytes (mouse) (UniProt P02340); assay: p53 immunoprecipitation from Ink4a/Arf deficient astrocytes, anti-V5 immunoblot
[4] = target: T2, recombinant (His)6-caspase-7 polypeptide (UniProt P55210); assay: in vitro translated Bcl2L12-V5 precipitated with (His)6-caspase-7 on Ni-NTA beads, autoradiography
T2 sequence: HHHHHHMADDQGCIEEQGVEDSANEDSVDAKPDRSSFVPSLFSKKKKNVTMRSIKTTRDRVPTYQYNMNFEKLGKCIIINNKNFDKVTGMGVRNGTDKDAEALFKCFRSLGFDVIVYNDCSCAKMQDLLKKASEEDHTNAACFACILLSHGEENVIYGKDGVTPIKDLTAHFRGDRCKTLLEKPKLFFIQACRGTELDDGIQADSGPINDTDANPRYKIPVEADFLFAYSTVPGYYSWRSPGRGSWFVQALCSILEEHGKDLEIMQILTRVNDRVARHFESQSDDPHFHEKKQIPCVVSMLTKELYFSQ

HA-tagged p53 = HA-tagged p53 (UniProt P04637); assay: anti-HA immunoprecipitation from U87MG cells, anti-V5 immunoblot
[5] = target: endogenous Apaf-1 polypeptide of 293T cells (human) (UniProt O14727); assay: co-immunoprecipitation from 293T cells, Apaf-1 western blot

B1: endogenous Bcl2L12 polypeptide of human cell lines (LNZ308, LN443, LN382, U87MG, 293T) (other)
chain: MGRPAGLFPPLCPFLGFRPEACWERHMQIERAPSVPPFLRWAGYRPGPVRRRGKVELIKFVRVQWRRPQVEWRRRRWGPGPGASMAGSEELGLREDTLRVLAAFLRRGEAAGSPVPTPPRSPAQEEPTDFLSRLRRCLPCSLGRGAAPSESPRPCSLPIRPCYGLEPGPATPDFYALVAQRLEQLVQEQLKSPPSPELQGPPSTEKEAILRRLVALLEEEAEVINQKLASDPALRSKLVRLSSDSFARLVELFCSRDDSSRPSRACPGPPPPSPEPLARLALAMELSRRVAGLGGTLAGLSVEHVHSFTPWIQAHGGWEGILAVSPVDLNLPLD
notes: Endogenous protein in lysates or fixed cells of human cell lines
[1]
  binding: binds

B2: Bcl2L12-V5 polypeptide (V5 tagged wild-type human Bcl2L12, human amino acid sequence 1-334) (protein, not shown: small tags and cut ends)
chain: B1 chain
[2]
  binding: binds
[3]
  binding: binds
[4]
  binding: binds
HA-tagged p53
  binding: binds

B3: Bcl2L12-V5-ΔBH2 polypeptide (human amino acid sequence 1-310) (protein, not shown: small tags and cut ends)
chain: MGRPAGLFPPLCPFLGFRPEACWERHMQIERAPSVPPFLRWAGYRPGPVRRRGKVELIKFVRVQWRRPQVEWRRRRWGPGPGASMAGSEELGLREDTLRVLAAFLRRGEAAGSPVPTPPRSPAQEEPTDFLSRLRRCLPCSLGRGAAPSESPRPCSLPIRPCYGLEPGPATPDFYALVAQRLEQLVQEQLKSPPSPELQGPPSTEKEAILRRLVALLEEEAEVINQKLASDPALRSKLVRLSSDSFARLVELFCSRDDSSRPSRACPGPPPPSPEPLARLALAMELSRRVAGLGGTLAGLSVEHVHSFTP
[5]
  binding: binds
